PubChem BioAssay AID1259308, NCATS, 2017
Aim: 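Knock-downs that increase output of a recombinant reporter protein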 (primary screen). Cells: human HEK293 embryonic kidney cells stably expressing firefly luciferase (HEK-CMV-Luc2-Hygro). Reagent: single siRNA against human genes, 0.8 pmol siRNA per well. Time to read-out: 72 h. Read-out: 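Luciferase light (ONE-Glo) measured on one replicate plate set and viability (CellTiter-Glo) on the other, scaled to a negative control siRNA, with robust z-scores and luciferase per cell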. Direction: total luciferase, z-score and total luciferase, % of control: higher = more reporter protein produced; luciferase per cell, z-score: higher = more reporter output per viable cell; viable cells, % of control: higher = more viable cells. Hit rule: 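An siRNA counts as active if its total luciferase robust z-score exceeds 3; genes with two or more such siRNAs out of three were retested with fresh siRNAs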. Meaning of the calls: active = raised luciferase; inactive = no rise.
This is one part, drawn at random, of about 59,000 reagents. In the full data, about 1,510 (2.6%) were called active. 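Calls use total luciferase alone and ignore viability, so some active siRNAs may act by altering cell number.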 Reagents against one gene are numbered here.

The first 2 entries, ahead of the listing:
gene symbol | reagent | total luciferase, z-score | total luciferase, % of control | luciferase per cell, z-score | viable cells, % of control | activity call
YBEY (GeneID 54059) | 1 | 0.167 | 85.2 | 0.325 | 87.4 | inactive
YBEY (GeneID 54059) | 2 | 1.07 | 103 | 0.935 | 90.2 | inactive

Results, from the start:
gene symbol | reagent | total luciferase, z-score | total luciferase, % of control | luciferase per cell, z-score | viable cells, % of control | activity call
YBEY (GeneID 54059) | 1 | 0.167 | 85.2 | 0.325 | 87.4 | inactive
YBEY (GeneID 54059) | 2 | 1.07 | 103 | 0.935 | 90.2 | inactive
YBEY (GeneID 54059) | 3 | 0.541 | 92.7 | 0.695 | 86.2 | inactive
KNOP1 (GeneID 400506) | 1 | 1.53 | 112 | 2.19 | 70.5 | inactive
KNOP1 (GeneID 400506) | 2 | -1.03 | 61.4 | -0.681 | 82.1 | inactive
KNOP1 (GeneID 400506) | 3 | -0.463 | 72.7 | -0.449 | 91.4 | inactive
HDAC2 (GeneID 3066) | 1 | -0.866 | 64.7 | 0.194 | 68.7 | inactive
HDAC2 (GeneID 3066) | 2 | -2.44 | 33.3 | -2.88 | 79.4 | inactive
HDAC2 (GeneID 3066) | 3 | -0.283 | 76.3 | -0.407 | 94.9 | inactive
RASGEF1C (GeneID 255426) | 1 | -1.22 | 57.7 | -1.68 | 100 | inactive
RASGEF1C (GeneID 255426) | 2 | -0.0285 | 81.3 | 1.27 | 65.1 | inactive
RASGEF1C (GeneID 255426) | 3 | 0.643 | 94.7 | -0.144 | 110 | inactive
HOXA13 (GeneID 3209) | 1 | 0.449 | 90.8 | 0.91 | 79.9 | inactive
HOXA13 (GeneID 3209) | 2 | -1.64 | 49.3 | -1.83 | 89.3 | inactive
HOXA13 (GeneID 3209) | 3 | -0.39 | 74.1 | -0.0449 | 83.8 | inactive
STXBP3 (GeneID 6814) | 1 | -1.18 | 58.3 | -0.563 | 75.6 | inactive
STXBP3 (GeneID 6814) | 2 | 0.101 | 83.9 | 0.361 | 85.2 | inactive
STXBP3 (GeneID 6814) | 3 | 0.125 | 84.4 | 0.391 | 85.1 | inactive
RTN4IP1 (GeneID 84816) | 1 | -0.362 | 74.7 | -0.597 | 97.7 | inactive
RTN4IP1 (GeneID 84816) | 2 | -0.599 | 70 | -0.92 | 99.6 | inactive
RTN4IP1 (GeneID 84816) | 3 | 0.197 | 85.8 | 0.0941 | 93.5 | inactive
CACNA1S (GeneID 779) | 1 | -0.737 | 67.2 | -0.113 | 77.4 | inactive
CACNA1S (GeneID 779) | 2 | -2.46 | 33 | -3.13 | 84.1 | inactive
CACNA1S (GeneID 779) | 3 | 0.083 | 83.5 | -0.0526 | 94.6 | inactive
ILRUN (GeneID 64771) | 1 | -1.67 | 48.6 | -0.44 | 61 | inactive
ILRUN (GeneID 64771) | 2 | 1.08 | 103 | 0.365 | 105 | inactive
ILRUN (GeneID 64771) | 3 | 2.34 | 128 | 1.49 | 96.8 | inactive
SYT9 (GeneID 143425) | 1 | -0.0512 | 80.9 | 0.112 | 87.7 | inactive
SYT9 (GeneID 143425) | 2 | 0.761 | 97 | 0.493 | 95.2 | inactive
SYT9 (GeneID 143425) | 3 | -0.309 | 75.7 | -0.404 | 94.1 | inactive
FCHO1 (GeneID 23149) | 1 | 0.447 | 90.8 | -0.206 | 107 | inactive
FCHO1 (GeneID 23149) | 2 | -0.621 | 69.5 | -1 | 101 | inactive
FCHO1 (GeneID 23149) | 3 | 0.236 | 86.6 | 0.113 | 93.9 | inactive
BRD1 (GeneID 23774) | 1 | -1.94 | 43.3 | -2.19 | 86.2 | inactive
BRD1 (GeneID 23774) | 2 | 0.517 | 92.2 | 0.126 | 99.6 | inactive
BRD1 (GeneID 23774) | 3 | -0.782 | 66.3 | -0.11 | 76.3 | inactive
GABRD (GeneID 2563) | 1 | 2.59 | 133 | 1.46 | 101 | inactive
GABRD (GeneID 2563) | 2 | 0.502 | 91.9 | -0.34 | 112 | inactive
GABRD (GeneID 2563) | 3 | -0.296 | 76 | 0.137 | 81.9 | inactive
